Results as given in paper PMC11900879.
Results are given in words; binding and its absence hold for the method and conditions named. Binding seen in cells or lysates may run through a third protein. Some binding calls cover weakened binding; strength is not graded here.

By UniProt entry, the sequences of proteins in these tests, tags left out. Where a name states a change or a piece, a line headed by the entry shows the natural chain unless it says otherwise.
UniProt Q13315: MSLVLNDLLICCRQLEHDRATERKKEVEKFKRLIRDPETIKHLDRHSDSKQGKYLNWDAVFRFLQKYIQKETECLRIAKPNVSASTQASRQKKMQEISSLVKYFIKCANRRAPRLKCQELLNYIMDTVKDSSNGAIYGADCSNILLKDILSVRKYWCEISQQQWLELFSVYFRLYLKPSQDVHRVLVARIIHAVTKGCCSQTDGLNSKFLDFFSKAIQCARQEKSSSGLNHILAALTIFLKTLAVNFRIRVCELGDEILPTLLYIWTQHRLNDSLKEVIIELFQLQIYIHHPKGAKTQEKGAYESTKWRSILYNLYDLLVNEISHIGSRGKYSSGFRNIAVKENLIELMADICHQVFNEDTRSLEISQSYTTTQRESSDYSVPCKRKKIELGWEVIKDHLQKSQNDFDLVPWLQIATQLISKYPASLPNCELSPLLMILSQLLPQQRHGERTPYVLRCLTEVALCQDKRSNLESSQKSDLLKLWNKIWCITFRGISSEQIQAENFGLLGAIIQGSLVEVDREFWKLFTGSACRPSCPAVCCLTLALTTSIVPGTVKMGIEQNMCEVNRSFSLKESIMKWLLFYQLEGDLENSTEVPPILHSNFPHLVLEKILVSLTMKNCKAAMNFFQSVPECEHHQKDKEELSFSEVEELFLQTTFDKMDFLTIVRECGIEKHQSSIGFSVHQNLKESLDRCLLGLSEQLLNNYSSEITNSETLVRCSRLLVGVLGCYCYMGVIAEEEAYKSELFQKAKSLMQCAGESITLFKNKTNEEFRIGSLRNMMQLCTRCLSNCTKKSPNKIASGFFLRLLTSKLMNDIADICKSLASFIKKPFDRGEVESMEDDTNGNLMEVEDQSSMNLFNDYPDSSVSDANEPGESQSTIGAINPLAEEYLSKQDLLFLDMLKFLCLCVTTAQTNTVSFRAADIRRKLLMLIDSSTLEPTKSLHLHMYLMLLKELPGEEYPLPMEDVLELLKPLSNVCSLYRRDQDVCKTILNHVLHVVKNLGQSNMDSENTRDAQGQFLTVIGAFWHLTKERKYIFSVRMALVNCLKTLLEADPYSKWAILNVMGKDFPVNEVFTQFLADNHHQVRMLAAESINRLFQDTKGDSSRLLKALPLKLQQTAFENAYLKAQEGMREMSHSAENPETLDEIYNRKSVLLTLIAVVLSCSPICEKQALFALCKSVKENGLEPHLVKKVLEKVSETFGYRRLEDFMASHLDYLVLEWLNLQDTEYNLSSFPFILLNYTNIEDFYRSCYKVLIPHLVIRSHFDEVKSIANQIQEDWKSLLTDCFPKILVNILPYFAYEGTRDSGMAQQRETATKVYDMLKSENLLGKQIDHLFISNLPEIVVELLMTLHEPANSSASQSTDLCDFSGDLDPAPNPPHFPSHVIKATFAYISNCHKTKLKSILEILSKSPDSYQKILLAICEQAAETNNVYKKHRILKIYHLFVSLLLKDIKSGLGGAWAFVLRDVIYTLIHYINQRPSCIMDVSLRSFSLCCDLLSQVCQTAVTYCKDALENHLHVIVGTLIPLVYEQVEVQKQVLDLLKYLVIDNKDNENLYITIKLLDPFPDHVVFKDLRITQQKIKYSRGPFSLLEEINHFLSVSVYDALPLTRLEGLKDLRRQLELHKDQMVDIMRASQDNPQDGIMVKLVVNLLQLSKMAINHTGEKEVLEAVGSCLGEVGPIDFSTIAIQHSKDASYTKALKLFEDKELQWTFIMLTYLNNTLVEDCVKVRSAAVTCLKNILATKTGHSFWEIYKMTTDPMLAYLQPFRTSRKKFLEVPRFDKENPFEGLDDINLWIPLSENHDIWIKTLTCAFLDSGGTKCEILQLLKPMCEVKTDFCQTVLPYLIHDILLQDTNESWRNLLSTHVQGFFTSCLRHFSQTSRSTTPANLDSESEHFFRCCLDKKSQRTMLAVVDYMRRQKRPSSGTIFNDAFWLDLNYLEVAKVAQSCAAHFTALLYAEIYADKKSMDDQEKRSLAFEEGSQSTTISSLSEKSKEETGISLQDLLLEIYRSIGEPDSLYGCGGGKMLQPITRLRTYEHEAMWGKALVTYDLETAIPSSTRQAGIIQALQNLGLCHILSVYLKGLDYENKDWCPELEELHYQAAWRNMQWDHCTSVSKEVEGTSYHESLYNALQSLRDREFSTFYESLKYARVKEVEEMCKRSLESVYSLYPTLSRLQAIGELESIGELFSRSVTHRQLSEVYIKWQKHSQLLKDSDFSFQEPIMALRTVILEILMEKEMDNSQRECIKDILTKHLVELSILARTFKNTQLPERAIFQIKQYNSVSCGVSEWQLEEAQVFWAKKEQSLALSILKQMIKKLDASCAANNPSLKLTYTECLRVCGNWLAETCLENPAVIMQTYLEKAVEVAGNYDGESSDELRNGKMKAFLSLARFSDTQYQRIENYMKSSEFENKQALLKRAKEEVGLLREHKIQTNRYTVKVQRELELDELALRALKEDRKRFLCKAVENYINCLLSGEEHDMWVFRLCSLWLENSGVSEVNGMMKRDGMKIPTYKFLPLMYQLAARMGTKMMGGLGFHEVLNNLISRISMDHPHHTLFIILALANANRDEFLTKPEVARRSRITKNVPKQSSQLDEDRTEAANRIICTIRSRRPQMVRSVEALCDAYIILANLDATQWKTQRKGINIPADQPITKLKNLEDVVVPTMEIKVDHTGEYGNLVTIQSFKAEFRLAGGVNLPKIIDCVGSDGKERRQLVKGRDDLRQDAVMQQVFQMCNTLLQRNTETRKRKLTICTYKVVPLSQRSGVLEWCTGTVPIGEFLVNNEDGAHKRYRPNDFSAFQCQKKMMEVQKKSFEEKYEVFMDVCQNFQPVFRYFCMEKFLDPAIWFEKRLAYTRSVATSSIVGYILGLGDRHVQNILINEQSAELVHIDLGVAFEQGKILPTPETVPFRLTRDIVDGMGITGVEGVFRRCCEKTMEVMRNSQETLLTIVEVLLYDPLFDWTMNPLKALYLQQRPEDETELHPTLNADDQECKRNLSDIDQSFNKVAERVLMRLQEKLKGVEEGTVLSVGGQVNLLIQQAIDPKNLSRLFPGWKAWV

Experiments:
[1] = biological target: γH2AX (human (endogenous in H460 and H157)) (UniProt P16104); assay: proximity ligation; in situ Duolink PLA on cells fixed with 4% PFA and permeabilised with 0.5% Triton X-100; endogenous proteins detected with primary antibodies; WT and LIPT1-/- H460 and H157 cells, with or without 10-Gy or 4-Gy IR; also Myc-LIPT1 re-expression, siKDM4B, 1 mM dimethyl-α-KG
[2] = biological target: ATM (ataxia telangiectasia–mutated) kinase (human (endogenous in H460 and H157)) (UniProt Q13315); assay: as above

TIP60 (from UniProt Q92993 1-513)
binding [1]: binds
binding [2]: binds
